Data published in the supplement of paper PMC3334620.
The full ranking holds about 33,000 sequences; the median of “E-score (-0.5 to 0.5)” is about -0.0059, and the highest 2% start at about 0.26. This is one part of the list.

molecular target: T1, Cin5 (UniProt P40917); assay: PBM E-score (8-mer binding enrichment) (E-score (-0.5 to 0.5)); higher = stronger / more preferred TF binding; conditions: protein concentration: 100 nM; construct: GST-full length
T1 sequence: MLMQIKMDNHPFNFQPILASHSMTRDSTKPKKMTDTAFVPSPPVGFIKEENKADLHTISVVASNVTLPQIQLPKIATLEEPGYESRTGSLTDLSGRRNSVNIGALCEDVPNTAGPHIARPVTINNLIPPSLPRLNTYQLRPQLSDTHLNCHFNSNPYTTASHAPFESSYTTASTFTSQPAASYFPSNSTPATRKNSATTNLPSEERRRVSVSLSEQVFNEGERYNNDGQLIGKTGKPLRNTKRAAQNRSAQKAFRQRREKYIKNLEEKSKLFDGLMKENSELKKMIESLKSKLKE
Summary of the method: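 Masliner-normalised scans of fluorescent anti-GST signal were the basis for scoring. That signal came from GST-tagged yeast transcription factors applied at about 100-200 nM to double-stranded universal all-10-mer Agilent arrays on fresh or once-stripped slides. Each ungapped eight-base word, pooled with its reverse complement, received an E-score from the Universal PBM Analysis Suite.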

| Sequence | PBM E-score |
| --- | --- |
| AATACTAG | 0.204 |
| CGACCAAC | -0.0255 |
| GGGAACAC | -0.0243 |
| AAGATCTC | -0.0558 |
| GATGGAGA | 0.00158 |
| CCTCCCTA | -0.245 |
| CTCAGCTC | -0.139 |
| ATGACAGC | 0.0951 |
| GAGGAAGC | -0.223 |
| ACTCCCGG | -0.0856 |
| CAGATGTC | -0.0243 |
| AAGTCACT | -0.0106 |
| CACACGTC | -0.23 |
| AACGGAGC | -0.187 |
| GGCTGCCA | -0.192 |
| CCCCGTAC | -0.241 |
| GGCAACAA | 0.124 |
| AGAGATTC | 0.0385 |
| AATTCCGA | 0.151 |
| AGATCTGG | -0.193 |
| GAGATCCA | -0.00918 |
| GACAATGC | -0.00472 |
| CGCGATCC | 0.00515 |
| ACACGAAA | 0.193 |
| GTCAATTA | 0.024 |

| Sequence | PBM E-score |
| --- | --- |
| ACGGTGCG | -0.0608 |
| TAGTTATA | 0.23 |
| ACCGCCGA | -0.133 |
| CTTACAAA | 0.192 |
| CATCTTCG | 0.109 |
| GTCACTGA | -0.0276 |
| ATTTCACA | 0.214 |
| ATTCTGAG | -0.0347 |
| TATTGTCA | 0.191 |
| ACATGCCT | -0.201 |
| AAACAAGA | 0.0674 |
| AGGACTTC | -0.241 |
| GTGCGAAA | -0.00601 |
| GTGGAAAA | 0.0919 |
| AGACCACG | -0.214 |
| AGTAGCAA | 0.136 |
| CAAAACCC | 0.0411 |
| AGACCCAA | 0.0315 |
| CGCGCCAC | 0.0114 |
| CACTCATC | 0.031 |
| CCAGCGTC | -0.249 |
| AGCAGCGC | -0.0185 |
| GGTGAGTA | -0.00832 |
| CATCGACA | -0.103 |
| ATCACACA | 0.16 |

| Sequence | PBM E-score |
| --- | --- |
| AAGTGTGG | 0.00252 |
| GGAGCGGA | -0.124 |
| AGTCCTCG | -0.179 |
| AGGCCTGC | -0.232 |
| CGGGAACG | -0.00694 |
| ACCCCGAG | -0.128 |
| AACGCCTA | 0.0388 |
| ACACACTC | 0.218 |
| CATGAATA | -0.0377 |
| GACGCATA | 0.111 |
| ACTGACGG | -0.123 |
| ACTCCCTC | -0.224 |
| ACCATTGG | 0.0343 |
| CTAACTAA | 0.15 |
| ATGCTCGC | 0.0419 |
| AGCCTGAA | -0.037 |
| AACTTGGC | 0.103 |
| ACGTCTAC | -0.114 |
| CCAGAGCG | -0.146 |
| AAATCCCC | -0.131 |
| CAGGCAAA | -0.00195 |
| GCGCTAAC | -0.0995 |
| ACCCCACG | -0.0358 |
| ATCGGAAC | 0.267 |
| CCTGGACC | -0.145 |

| Sequence | PBM E-score |
| --- | --- |
| GTGGGCAA | -0.0179 |
| AAGTCGCC | -0.242 |
| CCACCTAA | 0.0475 |
| AGACCGCT | -0.167 |
| ACGGGTGG | 0.0946 |
| CATAACAA | 0.252 |
| CTCAGAAG | -0.157 |
| ATGCTAAC | 0.0717 |
| ACTCCGAC | -0.104 |
| CGCGCACA | 0.123 |
| AAAATGTC | 0.0971 |
| AGCTCTGG | -0.213 |
| AAAATTGC | 0.0665 |
| CATCGAGA | 0.13 |
| GTGGGAGA | -0.227 |
| CGACCGAG | -0.0976 |
| CAACTTGC | -0.0974 |
| CAATGGTG | -0.161 |
| ATGGTTCC | 0.109 |
| CCGTCGGC | -0.262 |
| GTTTCAGA | -0.0438 |
| GACGTACA | 0.0813 |
| ACCCAAGA | -0.0441 |
| AGAGAGTC | -0.156 |
| AGCGAGCC | -0.0601 |

7 records picked at random from those above, as already listed:

| Sequence | PBM E-score |
| --- | --- |
| CAATGGTG | -0.161 |
| ATGCTAAC | 0.0717 |
| GACGTACA | 0.0813 |
| CGCGCACA | 0.123 |
| AGACCGCT | -0.167 |
| GTTTCAGA | -0.0438 |
| ACTCCGAC | -0.104 |

Following part:

| Sequence | PBM E-score |
| --- | --- |
| AACCGCCA | -0.136 |
| CTGCGGCA | -0.222 |
| CGTTACCC | -0.0645 |
| CCAGTCAC | -0.172 |
| CAACCCGG | -0.222 |
| ATAGTAAA | 0.198 |
| TGATCAAA | 0.0816 |
| GAAATAGC | 0.0697 |
| ATACATTC | 0.153 |
| CTAGGCAA | -0.126 |
| ACAAGAGA | 0.0645 |
| GACTTGCC | -0.255 |
| AATGACAG | 0.0567 |
| CTCTGTCC | -0.0803 |
| CATCACGA | -0.0937 |
| AATGACTC | -0.17 |
| CAGTGGGC | -0.0998 |
| CAATGGCC | -0.225 |
| CCCCTGCA | -0.235 |
| GACATCAC | -0.0253 |
| GTAACTAA | 0.111 |
| CGGGTGCA | -0.0994 |
| CAAACGCA | -0.103 |
| CATTGGAG | 0.0105 |
| CGGTGCTA | -0.0572 |

| Sequence | PBM E-score |
| --- | --- |
| CATCTAAC | -0.0982 |
| CATATTGA | 0.0883 |
| AGCCCGGA | -0.207 |
| ACGGACCC | -0.213 |
| AGAGACAC | -0.155 |
| ACGTAAAT | 0.139 |
| AGAAAACT | 0.0998 |
| GCGAACCC | -0.0359 |
| CCATGTCC | -0.164 |
| CTGGGTCC | -0.348 |
| AATGTCGT | 0.0366 |
| CGAACGTA | -0.0397 |
| GGCCGCAA | -0.162 |
| ACACTAAA | 0.236 |
| AGCGCGTC | -0.115 |
| GCAGCACC | -0.133 |
| CGTTAGAA | -0.0968 |
| ACTTCCTA | 0.0359 |
| TGATTTAA | 0.168 |
| GCAATTGC | -0.0502 |
| AAAGTCTC | -0.247 |
| ACAGCGAG | -0.0977 |
| CCACGTGA | -0.093 |
| ACCGAAAA | 0.151 |
| ATATAGGC | 0.1 |

| Sequence | PBM E-score |
| --- | --- |
| CAACAAGC | 0.0475 |
| AACCTTAA | 0.19 |
| GGGGCTAA | -0.101 |
| GGGTGCTA | -0.0324 |
| TACCTCCA | -0.049 |
| AGTGCTAA | 0.0862 |
| ACACTACC | -0.079 |
| GTCAGCCA | 0.07 |
| AGGGATTG | -0.0923 |
| GCGCGGTA | 0.151 |
| ATTTGGAG | -0.181 |
| TCTGAGCA | -0.0816 |
| ACCCTATC | -0.016 |
| GAGACGTA | 0.185 |
| CGTACTCC | -0.0619 |
| CCTATTTC | 0.047 |
| ACATTAAA | 0.152 |
| CCTGTATA | 0.00769 |
| AGTCATAT | 0.158 |
| ACCGATCG | -0.0344 |
| AAGCTTAG | 0.306 |
| CGACAGGA | 0.0987 |

In a second layout: entries from further up
AGTCATAT
  PBM E-score: 0.158
ACCGATCG
  PBM E-score: -0.0344
